From patent US7199138B2, “Substituted anthranilamides for controlling invertebrate pests” (E. I. du Pont de Nemours and Company, priority 2001, dated 2007)
Some entries share one result that the patent states for a list of compounds. At least one structure is not confirmed: it was looked up by name or label, or the drawing left a doubt.

Legend:
Type in all cases: in vivo
[1] = tested on: Corn Planthopper (Peregrinus maidis); assay: Test G: control of Corn Planthopper through contact and/or systemic means, corn (maize) plant; settings: sprayed at 250 ppm; corn (maize) plant post-infested with nymphs; 6 days at 19–21° C.; visually assessed
[2] = tested on: green peach aphid (Myzus persicae); assay: Test E: control of green peach aphid through contact and/or systemic means, radish plant; settings: sprayed at 250 ppm; radish plant pre-infested with aphids; 6 days at 19–21° C.; visually assessed
[3] = tested on: beet armyworm (Spodoptera exigua); assay: Test D: control of beet armyworm, foliar spray on corn plant; settings: sprayed at 50 ppm; corn plant pre-infested with 1-day-old larvae; 6 days; visually rated
[4] = tested on: tobacco budworm (Heliothis virescens); assay: Test C: control of tobacco budworm, foliar spray on cotton plant; settings: sprayed at 50 ppm; cotton plant pre-infested with 2-day-old larvae; 6 days; visually rated
[5] = tested on: fall armyworm (Spodoptera frugiperda); assay: Test B: control of fall armyworm, foliar spray on corn (maize) plant; settings: sprayed at 50 ppm; corn (maize) plant pre-infested with 1-day-old larvae; 6 days; visually rated
[6] = tested on: diamondback moth (Plutella xylostella); assay: Test A: control of diamondback moth, foliar spray on radish plant; settings: sprayed at 50 ppm; radish plant pre-infested with neonate larvae; 6 days at 25° C.; visually assessed
[7] = tested on: Potato Leafhopper (Empoasca fabae Harris); assay: Test H: control of Potato Leafhopper through contact and/or systemic means, Longio bean plant; settings: sprayed at 250 ppm; Longio bean plant post-infested with adults; 6 days at 19–21° C.; visually assessed
[8] = tested on: cotton melon aphid (Aphis gossypii); assay: Test F: control of cotton melon aphid through contact and/or systemic means, cotton plant; settings: sprayed at 250 ppm; cotton plant pre-infested with aphids; 6 days; visually rated

SMILES: CNC(=O)c1cc(C)c(NC(=O)c2cc(C(F)(F)F)nn2-c2ncccc2Cl)c(C(=O)NC(C)C)c1 [Compound 14]
- mortality [1]: at least 80%
- mortality [2]: at least 80%
- feeding damage (excellent levels of plant protection) [3]: ≤ 20%
- feeding damage (excellent levels of plant protection) [4]: ≤ 20%
- feeding damage (excellent levels of plant protection) [5]: ≤ 20%

SMILES: Cc1cc(C(=O)NC2CC2)cc(C(=O)NC(C)C)c1NC(=O)c1cc(C(F)(F)F)nn1-c1ncccc1Cl [Compound 17]
- feeding damage (excellent levels of plant protection) [6]: ≤ 20%
- mortality [7]: at least 80%

SMILES: CC(=O)c1cc(C)c(NC(=O)c2cc(C(F)(F)F)nn2-c2ncccc2Cl)c(C(=O)NC(C)C)c1 [Compound 19]
- mortality [8]: at least 80%
- mortality [2]: at least 80%
- feeding damage (excellent levels of plant protection) [3]: ≤ 20%
- feeding damage (excellent levels of plant protection) [6]: ≤ 20%
- feeding damage (excellent levels of plant protection) [4]: ≤ 20%
- feeding damage (excellent levels of plant protection) [5]: ≤ 20%
- mortality [7]: at least 80%

SMILES: COC(=O)c1cc(C)c(NC(=O)c2cc(Br)nn2-c2ncccc2Cl)c(C(=O)NC(C)C)c1 [Compound 20]
- mortality [8]: at least 80%
- mortality [2]: at least 80%
- feeding damage (excellent levels of plant protection) [3]: ≤ 20%
- feeding damage (excellent levels of plant protection) [6]: ≤ 20%
- feeding damage (excellent levels of plant protection) [4]: ≤ 20%
- feeding damage (excellent levels of plant protection) [5]: ≤ 20%

SMILES: Cc1cc(N)cc(C(=O)NC(C)C)c1NC(=O)c1cc(C(F)(F)F)nn1-c1ncccc1Cl [Compound 24]
- mortality [8]: at least 80%
- mortality [2]: at least 80%
- feeding damage (excellent levels of plant protection) [3]: ≤ 20%
- feeding damage (excellent levels of plant protection) [4]: ≤ 20%
- feeding damage (excellent levels of plant protection) [5]: ≤ 20%

SMILES: Cc1cccc(C(=O)NC(C)C(N)=O)c1NC(=O)c1cc(C(F)(F)F)nn1-c1ncccc1Cl (stereo not drawn) [Compound 35]
- feeding damage (excellent levels of plant protection) [6]: ≤ 20%
- feeding damage (excellent levels of plant protection) [4]: ≤ 20%
- feeding damage (excellent levels of plant protection) [5]: ≤ 20%
- mortality [7]: at least 80%

SMILES: CC(NC(=O)c1cc(Cl)cc(Cl)c1NC(=O)c1cc(Cl)nn1-c1ncccc1Cl)C(=O)N(C)C (stereo not drawn) [Compound 36]
- mortality [8]: at least 80%
- mortality [1]: at least 80%
- mortality [2]: at least 80%
- feeding damage (excellent levels of plant protection) [6]: ≤ 20%
- feeding damage (excellent levels of plant protection) [4]: ≤ 20%
- feeding damage (excellent levels of plant protection) [5]: ≤ 20%

SMILES: CC(NC(=O)c1cc(Cl)cc(Cl)c1NC(=O)c1cc(Br)nn1-c1ncccc1Cl)C(=O)N(C)C (stereo not drawn) [Compound 37]
- mortality [8]: at least 80%
- mortality [1]: at least 80%
- mortality [2]: at least 80%
- feeding damage (excellent levels of plant protection) [6]: ≤ 20%
- feeding damage (excellent levels of plant protection) [4]: ≤ 20%
- feeding damage (excellent levels of plant protection) [5]: ≤ 20%

SMILES: CC(NC(=O)c1cc(Cl)cc(Cl)c1NC(=O)c1cc(C(F)(F)F)nn1-c1ncccc1Cl)C(=O)N(C)C (stereo not drawn) [Compound 38]
- mortality [8]: at least 80%
- mortality [2]: at least 80%
- feeding damage (excellent levels of plant protection) [6]: ≤ 20%
- feeding damage (excellent levels of plant protection) [4]: ≤ 20%
- feeding damage (excellent levels of plant protection) [5]: ≤ 20%

SMILES: Cc1cc(Cl)cc(C(=O)NC(C)C(=O)N(C)C)c1NC(=O)c1cc(Cl)nn1-c1ncccc1Cl (stereo not drawn) [Compound 39]
- mortality [8]: at least 80%
- feeding damage (excellent levels of plant protection) [6]: ≤ 20%
- feeding damage (excellent levels of plant protection) [4]: ≤ 20%
- feeding damage (excellent levels of plant protection) [5]: ≤ 20%

SMILES: Cc1cc(Cl)cc(C(=O)NC(C)C(=O)N(C)C)c1NC(=O)c1cc(C(F)(F)F)nn1-c1ncccc1Cl (stereo not drawn) [Compound 40]
- mortality [8]: at least 80%
- mortality [1]: at least 80%
- feeding damage (excellent levels of plant protection) [6]: ≤ 20%
- feeding damage (excellent levels of plant protection) [4]: ≤ 20%
- feeding damage (excellent levels of plant protection) [5]: ≤ 20%

SMILES: CCN(CC)C(=O)C(C)NC(=O)c1cc(Cl)cc(Cl)c1NC(=O)c1cc(Cl)nn1-c1ncccc1Cl (stereo not drawn) [Compound 41]
- mortality [2]: at least 80%
- feeding damage (excellent levels of plant protection) [3]: ≤ 20%
- feeding damage (excellent levels of plant protection) [6]: ≤ 20%
- feeding damage (excellent levels of plant protection) [4]: ≤ 20%
- feeding damage (excellent levels of plant protection) [5]: ≤ 20%

SMILES: CCN(CC)C(=O)C(C)NC(=O)c1cc(Cl)cc(Cl)c1NC(=O)c1cc(Br)nn1-c1ncccc1Cl (stereo not drawn) [Compound 42]
- mortality [8]: at least 80%
- mortality [2]: at least 80%
- feeding damage (excellent levels of plant protection) [3]: ≤ 20%
- feeding damage (excellent levels of plant protection) [6]: ≤ 20%
- feeding damage (excellent levels of plant protection) [4]: ≤ 20%
- feeding damage (excellent levels of plant protection) [5]: ≤ 20%

SMILES: CC(NC(=O)c1cc(F)cc(Cl)c1NC(=O)c1cc(Br)nn1-c1ncccc1Cl)C(N)=O (stereo not drawn) [Compound 48]
- feeding damage (excellent levels of plant protection) [3]: ≤ 20%
- feeding damage (excellent levels of plant protection) [6]: ≤ 20%
- feeding damage (excellent levels of plant protection) [4]: ≤ 20%
- feeding damage (excellent levels of plant protection) [5]: ≤ 20%
- mortality [7]: at least 80%

SMILES: CON=CNC(=O)c1cc(Cl)cc(Cl)c1NC(=O)c1cc(Cl)nn1-c1ncccc1Cl [Compound 50]
- mortality [8]: at least 80%
- mortality [2]: at least 80%
- feeding damage (excellent levels of plant protection) [6]: ≤ 20%
- feeding damage (excellent levels of plant protection) [5]: ≤ 20%
- mortality [7]: at least 80%

SMILES: CON=CNC(=O)c1cc(Cl)cc(Cl)c1NC(=O)c1cc(Br)nn1-c1ncccc1Cl [Compound 51]
- mortality [8]: at least 80%
- mortality [2]: at least 80%
- feeding damage (excellent levels of plant protection) [6]: ≤ 20%
- feeding damage (excellent levels of plant protection) [5]: ≤ 20%

SMILES: CON=CNC(=O)c1cc(Cl)cc(C)c1NC(=O)c1cc(Br)nn1-c1ncccc1Cl [Compound 54]
- mortality [8]: at least 80%
- mortality [2]: at least 80%
- feeding damage (excellent levels of plant protection) [6]: ≤ 20%
- feeding damage (excellent levels of plant protection) [5]: ≤ 20%
- mortality [7]: at least 80%

SMILES: CON=CNC(=O)c1cc(Cl)cc(C)c1NC(=O)c1cc(C(F)(F)F)nn1-c1ncccc1Cl [Compound 55]
- mortality [2]: at least 80%
- feeding damage (excellent levels of plant protection) [6]: ≤ 20%
- feeding damage (excellent levels of plant protection) [5]: ≤ 20%
- mortality [7]: at least 80%

SMILES: CON=CNC(=O)c1cc(Cl)cc(C)c1NC(=O)c1cc(Cl)nn1-c1ncccc1Cl [Compound 56]
- mortality [8]: at least 80%
- mortality [1]: at least 80%
- mortality [7]: at least 80%

SMILES: CON=CNC(=O)c1cc(Cl)cc(Cl)c1NC(=O)c1cc(C(F)(F)F)nn1-c1ncccc1Cl [Compound 57]
- mortality [8]: at least 80%
- mortality [7]: at least 80%

SMILES: CON=CNC(=O)c1cc(Cl)cc(Cl)c1NC(=O)c1cc(Br)nn1-c1ncccc1Cl [Compound 58]
- mortality [7]: at least 80%

SMILES: CCNC(=O)OCC(C)NC(=O)c1cc(Cl)cc(Cl)c1NC(=O)c1cc(Cl)nn1-c1ncccc1Cl (stereo not drawn) [Compound 59]
- feeding damage (excellent levels of plant protection) [6]: ≤ 20%
- feeding damage (excellent levels of plant protection) [5]: ≤ 20%
- mortality [7]: at least 80%

SMILES: CCNC(=O)OCC(C)NC(=O)c1cc(Cl)cc(Cl)c1NC(=O)c1cc(C(F)(F)F)nn1-c1ncccc1Cl (stereo not drawn) [Compound 61]
- mortality [8]: at least 80%
- mortality [2]: at least 80%
- feeding damage (excellent levels of plant protection) [6]: ≤ 20%
- feeding damage (excellent levels of plant protection) [5]: ≤ 20%
